Source: the supplement of paper PMC12578635
Some of the results follow. No stated cut-off is given here; in the data, active = 150% or more and inactive = the rest. Most values come without repeats; read them as rough.

system: Staphylococcus aureus JE2-lux inside RAW 264.7 macrophages; assay: intracellular bacterial bioluminescence relative to DMSO vehicle; higher = higher intracellular bacterial metabolic activity; details: 10 µM; treatment time 4 h; gentamicin 50 µg/ml

Intracellular bacterial bioluminescence, inactive:
CCCN1C(SCC(=O)Nc2ccccc2C(=O)OCC)=NS(=O)(=O)c2ccccc21 97%
Cc1cc(-c2csc(S(=O)(=O)N3CCOCC3)c2)on1 94.7%
Cc1cc(C)n(-c2cc(NCC(C)c3ccccc3)ncn2)n1 (stereo not drawn) 39.4%
Cc1nc(-c2cccs2)c(CC(=O)Nc2ccc(Br)cc2)s1 113%
Cc1cccc2c(O)c(C(=O)N3CCC(C)CC3)cnc12 101%
COc1cccc(CNC(=O)Cn2cnc3onc(-c4ccc(Cl)cc4)c3c2=O)c1OC 87.1%
CC(NC(=O)CCCc1nnc2c(=O)n(-c3ccc(Cl)cc3)ccn12)c1ccccc1 (stereo not drawn) 125%
Cc1cc(C)cc(-n2ncc3c(N4CCN(c5ccc(F)cc5)CC4)ncnc32)c1 116%
CC(Sc1nc2ncccc2o1)C(=O)N1CCCc2ccccc21 (stereo not drawn) 73.8%
Cc1cccc(-c2nc(NC(=O)C(C)Oc3ccccc3Cl)no2)c1 (stereo not drawn) 91.3%
CN(C)/C=N/c1c(C#N)cnn1-c1ncnc2sc(-c3ccccc3)cc12 120%
CCc1nc2ccc(NC(=O)c3cc(-c4ccccn4)n[nH]3)cc2[nH]1 44.4%
Cc1ccccc1-c1nc(NC(=O)COc2ccc(C(C)C)cc2)no1 101%
O=C(CSc1nc2c(oc3ccccc32)c(=O)n1CC1CCCO1)Nc1ccccc1F (stereo not drawn) 102%
CCOc1ccccc1/C=N/NC(=O)CNC(=O)c1ccc(S(=O)(=O)N(CC)CC)cc1 68.9%
O=C(Nc1ncc(S(=O)(=O)c2ccc([N+](=O)[O-])cc2)s1)c1cccc(F)c1 78.8%
Cc1ccc(-c2c(C(F)(F)F)nn3c(N4CCN(c5ccccn5)CC4)cc(C)nc23)cc1 115%
NC(=O)c1ccsc1NC(=O)CCSc1ccc(F)cc1 103%
CCOC(=O)c1cc(NC(=O)Nc2ccc(I)cc2)c(C)nc1C 67.6%
Cc1ccccc1-c1ncccc1C(=O)N1CCC(C(=O)NC2CCCCCC2)CC1 91.3%
O=C(CCN1CCCCC1)Nc1c(-c2ccccc2)c2cc(Br)ccc2[nH]c1=O 113%
O=C(Nc1ccccc1Cl)C1CCN(c2c3c(nc4ncnn24)CCC3)CC1 76%
COc1ccccc1CNC(=O)C(=O)NCC1OCCN1C(=O)c1ccc2c(c1)OCO2 (stereo not drawn) 98.5%
COc1ccccc1N1CCN(c2cc(C)nc3nc(Cc4cccc(F)c4)nn23)CC1 78%
Cc1ccc2nc(NCc3ccccc3)c(/C=N/c3cccc(Cl)c3)c(=O)n2c1 119%
Cc1c(C(=O)O)sc2ncnc(NCCc3ccsc3)c12 96.8%
CCc1cc(-c2csc(S(=O)(=O)N(Cc3ccccc3)C(C)C)c2)on1 78.8%
COC(=O)c1ccc(CSC(=S)NC2CCS(=O)(=O)C2)cc1 (stereo not drawn) 76.2%
O=C(Nc1cccc(Cl)c1)C1CCN(C(=O)NC2CCCCC2)CC1 91.4%
COc1cc(C)c(CNC(=O)c2c(-c3ccncc3)noc2C)cc1C(C)C 120%
O=C(Oc1ccc2ccc(=O)oc2c1)c1ccc(Cl)cc1 105%
COc1ccc(OC)c2[nH]c(=O)c(CCNC(=O)/C=C\c3ccccc3)cc12 78.6%
C=CCn1c(SCC(=O)N2CCN(CCO)CC2)nc2sc3c(c2c1=O)CCC3 97.1%
Cc1cccn2c(=O)c(C=O)c(N3CCCC3)nc12 144%
Cc1cc2c(c(=O)[nH]1)C(c1ccccc1)C(C#N)=C(N)O2 (stereo not drawn) 136%
c1ccc2c(c1)c(NCc1ccncc1)nn1cnnc21 100%
Cc1ccc(-c2noc(-c3cnn4c(C)c(Cc5ccccc5C)c(C)nc34)n2)cc1 84.3%
CCOc1ccc(-c2c(C)nn3c(C)c(C(=O)NCc4cccnc4)cnc23)cc1OCC 85.9%
CCOc1ccc(-c2noc(CCn3c(=O)[nH]c4ccccc4c3=O)n2)cc1OC 128%
O=C(c1ccc(Cl)cc1)C1CCN(C(=O)Nc2ccc(F)cc2F)CC1 92.7%
O=C(CCOc1ccccc1)Nc1nnc(-c2cc(Cl)ccc2Cl)o1 80.8%
Cc1ccc(NC(=O)CC2SC3=NCCN3C2=O)cc1 (stereo not drawn) 96%
CCOC(=O)C1=C(c2ccccc2)OC(N)=C(C#N)C1c1ccccc1 (stereo not drawn) 108%
COc1ccccc1C(=O)Nc1ccc(Nc2cc(N(C)C)nc(C)n2)cc1 83.9%
CCc1c(C)nc(SCC(=O)N2CCCCCC2)[nH]c1=O 97.5%
COc1ccc(CNC(=O)C2CCCN(c3nccc4c(C)nn(C)c34)C2)c(OC)c1 (stereo not drawn) 103%
CCOC(=O)c1ccc(NC(=O)c2ccc(SCCN3CCOCC3)nc2)cc1 114%
COc1cccc(-c2cc3nc(C)cc(NCc4cccnc4)n3n2)c1 47.2%
Cc1ccc(C(C)C)c(OCC(=O)N/N=C2/C(=O)N(C)c3ccccc32)c1 93.2%
Cc1nn(C)c(C)c1CNC(=O)c1cc2n(n1)CCCN(Cc1ccc(F)cc1)C2=O 99.6%
COCCn1/c(=N/C(=O)c2ccc([N+](=O)[O-])s2)sc2cc(F)ccc21 101%
CC(=O)NNc1nc(-c2ccccc2)c2cc(Cl)ccc2n1 76.8%
CCN1C(=O)C(C)(C)COc2ccc(NC(=O)CCc3ccc(OC)cc3)cc21 71.6%
COc1cccc(C(c2sc3nc(C)nn3c2O)N2CCOCC2)c1 (stereo not drawn) 94.1%
COc1ccc(-c2c(C#N)c(SCC(N)=O)nc(C)c2C(=O)Nc2ccccc2)cc1OC 90.5%
Cc1nc2ccn(Cc3ccccc3)c(=O)c2cc1C(=O)NC1CCCC1 125%
O=C(Cn1ccn(-c2ccc(Br)cc2)c(=O)c1=O)Nc1ccccc1Cl 114%
COC(=O)c1ccc(C2NC(=O)NC(O)(C(F)(F)F)C2C(=O)c2ccc(F)cc2)cc1 (stereo not drawn) 94.5%

A draw from above in order of SMILES length, rising.
Intracellular bacterial bioluminescence, inactive:
CC(Sc1nc2ncccc2o1)C(=O)N1CCCc2ccccc21 (stereo not drawn) 73.8%
Cc1nc(-c2cccs2)c(CC(=O)Nc2ccc(Br)cc2)s1 113%
Cc1ccccc1-c1nc(NC(=O)COc2ccc(C(C)C)cc2)no1 101%
Cc1ccccc1-c1ncccc1C(=O)N1CCC(C(=O)NC2CCCCCC2)CC1 91.3%
O=C(Nc1ncc(S(=O)(=O)c2ccc([N+](=O)[O-])cc2)s1)c1cccc(F)c1 78.8%
